Where a chain is given by its changes, count along the chain named. No constants are given. Whether binding was seen depends on the method and setting. Some entries that bind do so weakly or less than the wild type.
B1: Clone No. 100 (designed binder)
chain: LPAPKNLVVSEVTEDSLRLSWTGQQSRFDSFLIQYQESEKVGEAINLTVPGSERSYDLTGLKPGTEYTVSIYGVNSRTEILPLSAEFTT
B2: Clone No. 101 (designed binder)
chain: LPAPKNLVVSEVTEDSLRLSWLVLGAMFDSFLIQYQESEKVGEAINLTVPGSERSYDLTGLKPGTEYTVSIYGVMLKCPARPLSAEFTT
B3: Clone No. 102 (designed binder)
chain: LPAPKNLVVSEVTEDSLRLSWGSRREVFDSFLIQYQESEKVGEAINLTVPGSERSYDLTGLKPGTEYTVSIYGVFTSPMATPLSAEFTT
B4: Clone No. 103 (designed binder)
chain: LPAPKNLVVSEVTEDSLRLSWSRWKIGFDSFLIQYQESEKVGEAINLTVPGSERSYDLTGLKPGTEYTVSIYGVTMPDCMTPLSAEFTT
B5: Clone No. 104 (designed binder)
chain: LPAPKNLVVSEVTEDSLRLSWSVLIWQFDSFLIQYQESEKVGEAINLTVPGSERSYDLTGLKPGTEYTVSIYGVFDGYQCYPLSAEFTT
B6: Clone No. 16 (designed binder)
chain: LPAPKNLVVSEVTEDSLRLSWKTRYCFFDSFLIQYQESEKVGEAINLTVPGSERSYDLTGLKPGTEYTVSIYGVANLFYLRPLSAEFTT
B7: Clone No. 17 (designed binder)
chain: LPAPKNLVVSEVTEDSLRLSWSSSHGHFDSFLIQYQESEKVGEAINLTVPGSERSYDLTGLKPGTEYTVSIYGVGALSVIHPLSAEFTT
B8: Clone No. 18 (designed binder)
chain: B6 chain with K22E, T23S, Y25Q, C26A, F27Y, A75G, F78T, R81H
B9: Clone No. 19 (designed binder)
chain: B1 chain with T22N, G23K, Q24L, Q25D, R27G, N75Y, S76N, R77S, I80L, L81G
B10: Clone No. 20 (designed binder)
chain: B7 chain with S22E, S24Q, H25A, G26S, H27Y, A76Q, S78A
B11: Clone No. 21 (designed binder)
chain: B7 chain with S22N, S23A, S24P, H25L, G26L, H27W, A76N, I80L, H81Q
B12: Clone No. 22 (designed binder)
chain: LPAPKNLVVSEVTEDSLRLSWDPWYYYFDSFLIQYQESEKVGEAINLTVSGSERSYDLTGLKPGTEYTVSIYGVTRNYVLTPLSAEFTT
B13: Clone No. 23 (designed binder)
chain: LPAPKNLVVSEVTEDSLRLSWTLYCRYFDSFLIQYQESEKVGEAINLTVPGSERSYDLTGLKPGTEYTVSIYGVTPPCGYAPLSAEFTT
B14: Clone No. 24 (designed binder)
chain: LPAPKNLVVSEVTEDSLRLSWNCTTTFFDSFLIQYQESEKVGEAINLTVPGSERSYDLTGLKPGTEYTVSIYGVCWSYYMSPLSAEFTT
B15: Clone No. 25 (designed binder)
chain: B7 chain with S22Q, S23C, H25V, G26C, H27R, A76G, S78T, I80L, H81Q
B16: Clone No. 26 (designed binder)
chain: B12 chain with P23S, Y26P, Y27S, S50P, T75R, R76P, Y78F, V79F, L80M, T81G
B17: Clone No. 27 (designed binder)
chain: LPAPKNLVVSEVTEDSLRLSWCLAVSPFDSFLIQYQESEKVGEAINLTVPGSERSYDLTGLKPGTEYTVSIYGVCTTVTYHPLSAEFTT
B18: Clone No. 28 (designed binder)
chain: B6 chain with K22E, T23C, R24N, Y25P, F27R, A75G, N76S, F78T, Y79I, R81Q
B19: Clone No. 29 (designed binder)
chain: LPAPKNLVVSEVTEDSLPLSWSCSFECFDSFLIQYQESEKVGEAINLTVPGSERSYDLTGLKPGTEYTVSIYGVDRRRPMRPLSAEFTT
B20: Clone No. 30 (designed binder)
chain: B12 chain with D22S, P23A, Y25S, Y26F, S50P, T75G, V79T, L80F, T81R
B21: Clone No. 31 (designed binder)
chain: B7 chain with S22L, S23Q, S24H, H25C, G26A, H27S, A76Q, S78A
B22: Clone No. 32 (designed binder)
chain: B7 chain with S22E, S24H, H25G, G26S, H27Y, A76Q, S78A, H81R
B23: Clone No. 33 (designed binder)
chain: LPAPKNLVVSEVTEDSLRLSWETHDTNFDSFLIQYQESEKVGEAINLTVPGSERSYDLTGLKPGTEYTVSIYGVGQLDDNLPLSAEFTT
B24: Clone No. 37 (designed binder)
chain: B6 chain with K22E, T23S, Y25Q, C26T, F27Y, A75G, F78T, R81H
B25: Clone No. 38 (designed binder)
chain: B6 chain with K22S, T23A, R24W, Y25S, C26F, F27Y, A75G, F78T, R81H
B26: Clone No. 39 (designed binder)
chain: LPAPKNLVVSEVTEDSLRLSWESRQAYFDSFLIQYQESEKVGEAINLTVPGSERSYDLTGLKPGTEYTVSIYGVGKNYTFRPLSAEFTT
B27: Clone No. 40 (designed binder)
chain: B26 chain with E22S, S23A, R24W, Q25P, A26F
B28: Clone No. 41 (designed binder)
chain: B26 chain with E22S, S23A, R24W, Q25S, A26F
B29: Clone No. 42 (designed binder)
chain: B26 chain with E22S, S23A, R24W, Q25S, A26F, K76N, T79V, R81K
B30: Clone No. 43 (designed binder)
chain: B7 chain with S22E, S24R, H25A, G26S, H27Y, A76Q, S78A
B31: Clone No. 44 (designed binder)
chain: B7 chain with S22T, S23A, S24K, H25Y, G26W, H27L, A76Q, S78A
B32: Clone No. 45 (designed binder)
chain: B26 chain with E22T, S23A, R24K, Q25Y, A26W, Y27L, K76S, T79M, R81H
B33: Clone No. 46 (designed binder)
chain: B26 chain with E22H, S23P, R24W, Q25W, A26F, Y27L, K76S, T79M, R81H
B34: Clone No. 47 (designed binder)
chain: B12 chain with D22H, Y25W, Y26F, Y27L, S50P, T75G, V79L, L80M, T81S
B35: Clone No. 48 (designed binder)
chain: B12 chain with D22T, P23A, W24K, Y26W, Y27L, S50P, T75G, V79L, L80M, T81S
B36: Clone No. 49 (designed binder)
chain: LPAPKNLVVSEVTEDSLRLSWIQPRFYFDSFLIQYQESEKVGEAINLTVPGSERSYDLTGLKPGTEYTVSIYGVHWGHNLTPLSAEFTT
B37: Clone No. 50 (designed binder)
chain: LPAPKNLVVSEVTEDSLRLSWRQRYMVFDSFLIQYQESEKVGEAINLTVPGSERSYDLTGLKPGTEYTVSIYGVLIAMLVSPLSAEFTT
B38: Clone No. 51 (designed binder)
chain: B3 chain with G22R, S23F, R24P, R25A, E26F, F75P, P78C, M79A, A80Y, T81N
B39: Clone No. 52 (designed binder)
chain: LPAPKNLVVSEVTEDSLRLSWCMRNPIFDSFLIQYQESEKVGEAINLTVPGSERSYDLTGLKPGTEYTVSIYGVNLLRDSHPLSAEFTT
B40: Clone No. 53 (designed binder)
chain: LPAPKNLVVSEVTEDSLRLSWTAKYWLFDSFLIQYQESEKVGEAINLTVPGSERSYDLTGLKPGTEYTVSIYGVRPIVLPNPLSAEFTT
B41: Clone No. 54 (designed binder)
chain: B26 chain with S23M, R24K, Q25F, A26L, Y27H, G75S, K76S
B42: Clone No. 55 (designed binder)
chain: LPAPKNLVVSEVTEDSLRLSWREKRLRFDSFLIQYQESEKVGEAINLTVPGSERSYDLTGLKPGTEYTVSIYGVVPTSALSPLSAEFTT
B43: Clone No. 56 (designed binder)
chain: LPAPKNLVVSEVTEDSLRLSWCGYGKMFDSFLIQYQESEKVGEAINLTVPGSERSYDLTGLKPGTEYTVSIYGVFILPKLFPLSAEFTT
B44: Clone No. 57 (designed binder)
chain: LPAPKNLVVSEVTEDSLRLSWCDLWSSFDSFLIQYQESEKVGEAINLTVPGSERSYDLTGLKPGTKYTVSIYGVKYHYPYPPLSAEFTT

Amino acid sequences for entries named in this document (tags omitted). Residues count along the entry.
UniProt P01375, residues 77-233: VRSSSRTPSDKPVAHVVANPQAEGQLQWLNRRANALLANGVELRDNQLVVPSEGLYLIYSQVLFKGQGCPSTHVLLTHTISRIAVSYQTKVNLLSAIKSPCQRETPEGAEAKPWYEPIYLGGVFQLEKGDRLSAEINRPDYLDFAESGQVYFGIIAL

Molecular target: T1, recombinant TNFα, biotinylated (human, UniProt P01375 77-233, biotinylated using sulfo-NHS-LC-Biotin (sites not given))
T1 construct: human is stated in the abstract and claims; also called biotinylated TNFα; human TNFα
Assay: ELISA of lysates on biotinylated TNFα on streptavidin plate
Method: Maxisorp plates (Nunc) were coated with 0.5 μg of streptavidin, washed with TBST, and bound to 100 ng of biotinylated TNFα or 200 ng of biotinylated human serum albumin before being blocked with Starting Block (Thermo Scientific). Clarified lysates diluted 1:1 in Starting Block were added to the plates and allowed to bind for 1 hour before being washed with TBST. Detection of bound Tencon was accomplished using an anti-HIS-HRP antibody (Qiagen).

binding, binds:
B1, B2, B3, B4, B5, B6, B7, B8, B9, B10, B11, B12, B13, B14, B15, B16, B17, B18, B19, B20, B21, B22, B23, B24, B25, B26, B27, B28, B29, B30, B31, B32, B33, B34, B35, B36, B37, B38, B39, B40, B41, B42, B43, B44
